{"source": "PubChem BioAssay AID1259424 (University of Nebraska Medical Center, 2018)", "assay": "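Find knockdowns that reproduce the expression shifts seen after KSR1 loss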 (primary screen)", "cell system": "human HCT116 colon cancer cells", "reagents": "siRNA pool against human genes, 50 nM", "detection": "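Log2 levels of six mRNAs (branched-DNA multiplex), adjusted by two reference genes and the non-targeting median, then scored against the average KSR1 knockdown pattern as Pearson r and euclidean distance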", "scale": "mean correlation with KSR1 profile: higher = expression change more like KSR1 knockdown", "note": "Here is an unselected part of about 14,000 reagents tested. 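Higher correlation or smaller distance means closer resemblance to KSR1 loss; control wells, including KSR1 knockdowns, recur on many plates.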 Not all columns of the deposit are shown. The record does not give: the time to read-out."}
{"Target gene": "VIPR2", "PubChem SID": "SID363994494", "mean correlation with KSR1 profile": 0.0649}
{"Target gene": "CDC37L1", "PubChem SID": "SID364000638", "mean correlation with KSR1 profile": -0.327}
{"Target gene": "VAV2", "PubChem SID": "SID363994483", "mean correlation with KSR1 profile": -0.379}
{"Target gene": "G3BP2", "PubChem SID": "SID363998212", "mean correlation with KSR1 profile": 0.25}
{"Target gene": "PIGC", "PubChem SID": "SID363993810", "mean correlation with KSR1 profile": 0.126}
{"Target gene": "AK1", "PubChem SID": "SID363991799", "mean correlation with KSR1 profile": -0.118}
{"Target gene": "UBTD2", "PubChem SID": "SID364004701", "mean correlation with KSR1 profile": -0.59}
{"Target gene": "CTNNA1", "PubChem SID": "SID363993116", "mean correlation with KSR1 profile": -0.335}
{"Target gene": "LRFN2", "PubChem SID": "SID364005305", "mean correlation with KSR1 profile": -0.464}
{"Target gene": "FPR2", "PubChem SID": "SID363992724", "mean correlation with KSR1 profile": 0.0698}
{"Target gene": "TANC2", "PubChem SID": "SID364005426", "mean correlation with KSR1 profile": -0.243}
{"Target gene": "MCF2", "PubChem SID": "SID363996279", "mean correlation with KSR1 profile": -0.00565}
{"Target gene": "CANX", "PubChem SID": "SID363992967", "mean correlation with KSR1 profile": 0.417}
{"Target gene": "GSTA3", "PubChem SID": "SID363992134", "mean correlation with KSR1 profile": 0.795}
{"Target gene": "TTF1", "PubChem SID": "SID363997986", "mean correlation with KSR1 profile": 0.0551}
{"Target gene": "EIF3C", "PubChem SID": "SID363994819", "mean correlation with KSR1 profile": -0.304}
{"Target gene": "CREB3L3", "PubChem SID": "SID364004094", "mean correlation with KSR1 profile": 0.211}
{"Target gene": "UGT1A9", "PubChem SID": "SID364001964", "mean correlation with KSR1 profile": -0.0692}
{"Target gene": "VCP", "PubChem SID": "SID363997840", "mean correlation with KSR1 profile": -0.159}
{"Target gene": "HSD17B2", "PubChem SID": "SID363993357", "mean correlation with KSR1 profile": 0.494}
{"Target gene": "HOXA3", "PubChem SID": "SID364003397", "mean correlation with KSR1 profile": 0.284}
{"Target gene": "DAO", "PubChem SID": "SID363993130", "mean correlation with KSR1 profile": 0.282}
{"Target gene": "HDAC4", "PubChem SID": "SID363996888", "mean correlation with KSR1 profile": 0.00771}
{"Target gene": "SLC2A6", "PubChem SID": "SID364000379", "mean correlation with KSR1 profile": -0.424}
{"Target gene": "HBEGF", "PubChem SID": "SID363993158", "mean correlation with KSR1 profile": -0.171}
{"Target gene": "PRSS50", "PubChem SID": "SID363998394", "mean correlation with KSR1 profile": -0.341}
{"Target gene": "NFE2L3", "PubChem SID": "SID363995283", "mean correlation with KSR1 profile": -0.0447}
{"Target gene": "KIR3DL3", "PubChem SID": "SID364004772", "mean correlation with KSR1 profile": -0.533}
